{"source": "PubChem BioAssay AID504774, Drosophila RNAi Screening Center | 2011", "aim": "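Fly genes whose loss alters survival after alkylation damage to DNA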 (primary screen)", "cell system": "Drosophila Kc167 cells", "reagents": "long dsRNA against Drosophila genes, about 0.25 µg dsRNA per well", "time to read-out": "about 6 days: 3 days knock-down, then 3 days with or without MMS", "challenge": "methyl methanesulphonate 0.004% (w/v) for 3 days after knock-down", "detection": "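ATP-dependent luminescence as a measure of live cells in MMS-exposed wells, quantile normalised within each plate, with replicate values also given as a mean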", "scale": "mean viability with MMS and viability with MMS: higher = more surviving cells after MMS", "note": "The screen tested about 23,000 reagents; shown is a random part of those that have a named target and a result. 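Values are quantile-normalised luminescence on an arbitrary scale; higher means more cells surviving MMS.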 Names joined by + are all predicted targets of the reagent. Not all columns of the deposit are shown."}
{"predicted target": "GstE4 (GeneID 37109)", "DRSC id": "DRSC06674", "mean viability with MMS": 3.58e6, "viability with MMS, replicate 1": 3.86e6}
{"predicted target": "Tbh (GeneID 31718)", "DRSC id": "DRSC18723", "mean viability with MMS": 3.59e6, "viability with MMS, replicate 1": 3.98e6}
{"predicted target": "CG33467 (GeneID 2768834)", "DRSC id": "DRSC05525", "mean viability with MMS": 3.64e6, "viability with MMS, replicate 1": 4.06e6}
{"predicted target": "CG33467 (GeneID 2768834)", "DRSC id": "DRSC22651", "mean viability with MMS": 3.56e6, "viability with MMS, replicate 1": 3.96e6}
{"predicted target": "Rbsn-5 (GeneID 34110)", "DRSC id": "DRSC03094", "mean viability with MMS": 3.64e6, "viability with MMS, replicate 1": 4.13e6}
{"predicted target": "CG14610 + asRNA:CR42738", "DRSC id": "DRSC12554", "mean viability with MMS": 3.55e6, "viability with MMS, replicate 1": 4.10e6}
{"predicted target": "Rpn11 (GeneID 33738)", "DRSC id": "DRSC03422", "mean viability with MMS": 2.85e6, "viability with MMS, replicate 1": 3.30e6}
{"predicted target": "Ir94b (GeneID 318728)", "DRSC id": "DRSC21439", "mean viability with MMS": 3.51e6, "viability with MMS, replicate 1": 3.94e6}
{"predicted target": "CG42538 (GeneID 8673985)", "DRSC id": "DRSC09412", "mean viability with MMS": 3.71e6, "viability with MMS, replicate 1": 4.16e6}
{"predicted target": "CG7300 (GeneID 34472)", "DRSC id": "DRSC03044", "mean viability with MMS": 3.48e6, "viability with MMS, replicate 1": 3.95e6}
{"predicted target": "Ndfip (GeneID 326197)", "DRSC id": "DRSC11201", "mean viability with MMS": 3.66e6, "viability with MMS, replicate 1": 4.11e6}
{"predicted target": "sc (GeneID 30982)", "DRSC id": "DRSC18830", "mean viability with MMS": 3.46e6, "viability with MMS, replicate 1": 3.91e6}
{"predicted target": "msd5 (GeneID 38156)", "DRSC id": "DRSC08560", "mean viability with MMS": 3.57e6, "viability with MMS, replicate 1": 4.09e6}
{"predicted target": "CG32568 (GeneID 32659)", "DRSC id": "DRSC19913", "mean viability with MMS": 3.56e6, "viability with MMS, replicate 1": 4.07e6}
{"predicted target": "CG4730 (GeneID 43099)", "DRSC id": "DRSC15633", "mean viability with MMS": 3.69e6, "viability with MMS, replicate 1": 4.11e6}
{"predicted target": "CG14767 (GeneID 50250)", "DRSC id": "DRSC06500", "mean viability with MMS": 3.54e6, "viability with MMS, replicate 1": 3.93e6}
{"predicted target": "CG13579 (GeneID 37905)", "DRSC id": "DRSC04215", "mean viability with MMS": 3.47e6, "viability with MMS, replicate 1": 3.90e6}
{"predicted target": "Su(z)2 (GeneID 36432)", "DRSC id": "DRSC07558", "mean viability with MMS": 2.34e6, "viability with MMS, replicate 1": 2.93e6}
{"predicted target": "Su(z)2 (GeneID 36432)", "DRSC id": "DRSC22970", "mean viability with MMS": 2.97e6, "viability with MMS, replicate 1": 3.56e6}
{"predicted target": "GIIIspla2 (GeneID 31747)", "DRSC id": "DRSC18094", "mean viability with MMS": 3.57e6, "viability with MMS, replicate 1": 3.89e6}
{"predicted target": "CG32564 (GeneID 326222)", "DRSC id": "DRSC19933", "mean viability with MMS": 3.57e6, "viability with MMS, replicate 1": 4.02e6}
{"predicted target": "Cpr57A + Obp57d", "DRSC id": "DRSC06708", "mean viability with MMS": 3.48e6, "viability with MMS, replicate 1": 4.02e6}
{"predicted target": "Cpr57A + Obp57d", "DRSC id": "DRSC22719", "mean viability with MMS": 3.46e6, "viability with MMS, replicate 1": 3.86e6}
{"predicted target": "mbf1 (GeneID 39842)", "DRSC id": "DRSC11365", "mean viability with MMS": 3.49e6, "viability with MMS, replicate 1": 3.78e6}
{"predicted target": "Ranbp21 (GeneID 32970)", "DRSC id": "DRSC19447", "mean viability with MMS": 3.37e6, "viability with MMS, replicate 1": 3.76e6}
{"predicted target": "Ephrin (GeneID 43799)", "DRSC id": "DRSC17165", "mean viability with MMS": 3.57e6, "viability with MMS, replicate 1": 4.16e6}
{"predicted target": "Pis (GeneID 32506)", "DRSC id": "DRSC20178", "mean viability with MMS": 3.65e6, "viability with MMS, replicate 1": 4.06e6}
{"predicted target": "Syn (GeneID 41247)", "DRSC id": "DRSC16876", "mean viability with MMS": 3.63e6, "viability with MMS, replicate 1": 4.02e6}
{"predicted target": "lncRNA:CR30055 (GeneID 10178803)", "DRSC id": "DRSC22439", "mean viability with MMS": 3.63e6, "viability with MMS, replicate 1": 4.16e6}
{"predicted target": "CG12289 (GeneID 39279)", "DRSC id": "DRSC09874", "mean viability with MMS": 3.57e6, "viability with MMS, replicate 1": 3.99e6}
{"predicted target": "MstProx (GeneID 40890)", "DRSC id": "DRSC12458", "mean viability with MMS": 3.45e6, "viability with MMS, replicate 1": 3.91e6}
{"predicted target": "MstProx (GeneID 40890)", "DRSC id": "DRSC12601", "mean viability with MMS": 3.43e6, "viability with MMS, replicate 1": 3.84e6}
{"predicted target": "glob2 (GeneID 40807)", "DRSC id": "DRSC12560", "mean viability with MMS": 3.56e6, "viability with MMS, replicate 1": 3.84e6}
{"predicted target": "dachs (GeneID 34179)", "DRSC id": "DRSC02072", "mean viability with MMS": 3.24e6, "viability with MMS, replicate 1": 3.61e6}
{"predicted target": "dachs (GeneID 34179)", "DRSC id": "DRSC02191", "mean viability with MMS": 3.49e6, "viability with MMS, replicate 1": 4.06e6}
{"predicted target": "Osi13 (GeneID 40769)", "DRSC id": "DRSC12281", "mean viability with MMS": 3.36e6, "viability with MMS, replicate 1": 3.83e6}
{"predicted target": "Mocs1 (GeneID 39238)", "DRSC id": "DRSC11225", "mean viability with MMS": 3.74e6, "viability with MMS, replicate 1": 4.04e6}
{"predicted target": "Nrg (GeneID 31792)", "DRSC id": "DRSC17573", "mean viability with MMS": 3.53e6, "viability with MMS, replicate 1": 3.97e6}
{"predicted target": "Nrg (GeneID 31792)", "DRSC id": "DRSC18688", "mean viability with MMS": 3.65e6, "viability with MMS, replicate 1": 4.41e6}
{"predicted target": "CG30037 (GeneID 246409)", "DRSC id": "DRSC07305", "mean viability with MMS": 3.60e6, "viability with MMS, replicate 1": 4.08e6}
{"predicted target": "CG12914 (GeneID 36078)", "DRSC id": "DRSC06229", "mean viability with MMS": 3.57e6, "viability with MMS, replicate 1": 4.00e6}
{"predicted target": "RhoGEF4 (GeneID 38806)", "DRSC id": "DRSC11011", "mean viability with MMS": 3.66e6, "viability with MMS, replicate 1": 3.97e6}
{"predicted target": "CG7029 (GeneID 42703)", "DRSC id": "DRSC16177", "mean viability with MMS": 3.37e6, "viability with MMS, replicate 1": 3.78e6}
{"predicted target": "Pgant8 (GeneID 39715)", "DRSC id": "DRSC10801", "mean viability with MMS": 3.48e6, "viability with MMS, replicate 1": 4.07e6}
{"predicted target": "CG13998 (GeneID 50423)", "DRSC id": "DRSC02330", "mean viability with MMS": 3.40e6, "viability with MMS, replicate 1": 3.81e6}

Copied from the entries so far (3 entries):
{"predicted target": "mbf1 (GeneID 39842)", "DRSC id": "DRSC11365", "mean viability with MMS": 3.49e6, "viability with MMS, replicate 1": 3.78e6}
{"predicted target": "Ranbp21 (GeneID 32970)", "DRSC id": "DRSC19447", "mean viability with MMS": 3.37e6, "viability with MMS, replicate 1": 3.76e6}
{"predicted target": "Ephrin (GeneID 43799)", "DRSC id": "DRSC17165", "mean viability with MMS": 3.57e6, "viability with MMS, replicate 1": 4.16e6}
